Source: PubChem BioAssay AID256 (DTP/NCI, 2004)
The list shows only some results of the screen, not a fair sample: it is rich in T/C values a quarter to a half above the control, in often repeated tests (any T/C) and in doses without a T/C. Other doses and runs of a compound stand elsewhere. T/C is the treated group as % of the vehicle group. Some entries give survivors of the animals treated and no T/C: the source files T/C as zero there, which appears to mark a toxic dose or a test without result, not a measured value. Some doses without a T/C left all or most animals alive at the check, yet need not have been tolerated: the source hardly ever lists a survival T/C far under the control, and the zero likely stands for such cases as well. Survivors were counted at the toxicity check, usually on the fifth day, unless a day is given; later deaths do not show. Schedules are NCI's codes, read here as Q, the interval in days (D) or hours (H), X, the number of doses. Where survival is the endpoint, this PubChem deposit counts one and a half times the control or more as active, and values a quarter to a half above the control carry no call in these data; other NCI protocols may use other cut-offs. Some entries were tested several times; their values stand side by side, smallest first.

Test system: CD2F1 mice, L1210 leukemia ip, survival T/C
Assay: NCI In Vivo Anticancer Drug Screen. Data for tumor model L1210 Leukemia (intraperitoneal) in CD2F1 (CDF1) mice
Conditions: higher T/C = longer survival
In short: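 Antitumor effect is scored in animals hosting a serially transplanted tumor. Values compare compound-dosed animals against vehicle-only controls as a simple quotient.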

[1] = T/C endpoint: mean survival time, dose: 400.0 mg/kg/injection, schedule: Q01DX001 (ip), vehicle: saline
[2] = T/C endpoint: mean survival time, dose: 200.0 mg/kg/injection, schedule: Q01DX009 (ip), vehicle: saline with Tween-80
[3] = T/C endpoint: mean survival time, dose: 400.0 mg/kg/injection, schedule: Q01DX001 (ip), vehicle: saline with Tween-80
[4] = T/C endpoint: mean survival time, dose: 400.0 mg/kg/injection, schedule: Q01DX009 (ip), vehicle: saline with Tween-80
[5] = T/C endpoint: median survival time, dose: 400.0 mg/kg/injection, schedule: Q01DX009 (ip), vehicle: Klucel (hydroxypropylcellulose) (HPC)

With O=P(NC12CC3CC(CC(C3)C1)C2)(N1CC1)N1CC1 the T/C (T/C endpoint: mean survival time, dose: 13.3 mg/kg/injection, schedule: Q04DX003 (ip), vehicle: Klucel (hydroxypropylcellulose) (HPC)) was 128 % of control and the T/C (T/C endpoint: mean survival time, dose: 20.0 mg/kg/injection, schedule: Q04DX003 (ip), vehicle: Klucel (hydroxypropylcellulose) (HPC)) was 142 % of control.
With CS(=O)(=O)OCCN(CCOS(C)(=O)=O)c1cccc(F)c1 the survivor count (T/C endpoint: mean survival time, dose: 178.0 mg/kg/injection, schedule: Q01DX001 (ip), vehicle: saline) was 0 of 6, the survivor count (T/C endpoint: mean survival time, dose: 267.0 mg/kg/injection, schedule: Q01DX001 (ip), vehicle: saline) was 2 of 6 and the survivor count [1] was 1 of 6. For the same molecule, the survivor count (T/C endpoint: mean survival time, dose: 600.0 mg/kg/injection, schedule: Q01DX001 (ip), vehicle: saline) was 1 of 6.
For Nc1ccn(C2OC(COC(=O)C34CC5CC(CC(C5)C3)C4)C(O)C2O)c(=O)n1 (stereo not drawn), the T/C (T/C endpoint: mean survival time, dose: 200.0 mg/kg/injection, schedule: Q01DX009 (ip), vehicle: other) was 128 % of control.
In the case of N#Cc1cn(C2OC(CO)C(O)C2O)c2nc(NN)nc(N)c12 (stereo not drawn), the survivor count (T/C endpoint: mean survival time, dose: 200.0 mg/kg/injection, schedule: Q01DX005 (ip), vehicle: water) is reported as 4 of 6.
For O=C1NCCN1c1ncc([N+](=O)[O-])s1, the survivor count [2] was 3 of 6.
Cc1ccc(NC(=O)Nc2ccccc2C(N)=O)cc1C was tested, and the survivor count (T/C endpoint: mean survival time, dose: 50.0 mg/kg/injection, schedule: Q01DX009 (ip), vehicle: saline with Tween-80) was 2 of 3.
With O=C(CNC(=O)c1ccccc1)N/N=C/c1cccc([N+](=O)[O-])c1 the survivor count [2] was 6 of 6.
In the case of O=C(O)CS(=O)(=O)CC(=O)O, the survivor count (T/C endpoint: mean survival time, dose: 100.0 mg/kg/injection, schedule: Q01DX001 (ip), vehicle: saline with Tween-80) is reported as 3 of 6, the survivor count (T/C endpoint: mean survival time, dose: 200.0 mg/kg/injection, schedule: Q01DX001 (ip), vehicle: saline with Tween-80) is reported as 3 of 6 and the survivor count [3] is reported as 0 of 6.
For C=CC1CC=CCC1 (stereo not drawn), the survivor count [4] was 2 of 6.
With [Cl][Pt+2][Cl].[NH-]CC([NH-])c1ccc2oc3ccccc3c2c1 (stereo not drawn) the survivor count (T/C endpoint: median survival time, dose: 160.0 mg/kg/injection, schedule: Q04DX003 (ip), vehicle: saline with Tween-80) was 0 of 6 and the survivor count (T/C endpoint: median survival time, dose: 320.0 mg/kg/injection, schedule: Q04DX003 (ip), vehicle: saline with Tween-80) was 0 of 6.
O=C1C(Cl)=C(SCc2ccccc2)C(=O)c2ccccc21 was tested, and the survivor count (T/C endpoint: mean survival time, dose: 100.0 mg/kg/injection, schedule: Q04DX003 (ip), vehicle: saline with Tween-80) was 2 of 6.
In the case of O=C(O)c1c(F)c(F)c(-c2c(F)c(F)c(C(=O)O)c(C(=O)O)c2F)c(F)c1C(=O)O, the survivor count [3] is reported as 0 of 6.
O=S(=O)(/C=C\S(=O)(=O)c1ccccc1)c1ccccc1 was tested, and the survivor count (T/C endpoint: mean survival time, dose: 50.0 mg/kg/injection, schedule: Q01DX009 (ip), vehicle: Klucel (hydroxypropylcellulose) (HPC)) was 5 of 6, the survivor count (T/C endpoint: mean survival time, dose: 100.0 mg/kg/injection, schedule: Q01DX009 (ip), vehicle: Klucel (hydroxypropylcellulose) (HPC)) was 1 of 6 and the survivor count (T/C endpoint: mean survival time, dose: 200.0 mg/kg/injection, schedule: Q01DX009 (ip), vehicle: Klucel (hydroxypropylcellulose) (HPC)) was 0 of 6. The survivor count (T/C endpoint: mean survival time, dose: 400.0 mg/kg/injection, schedule: Q01DX009 (ip), vehicle: Klucel (hydroxypropylcellulose) (HPC)) was 0 of 6.
In the case of CC1CCC(n2cnc3c(Cl)ncnc32)O1 (stereo not drawn), the T/C [5] is reported as 134 and 137 % of control, the survivor count [5] is reported as 1 of 6 and the survivor count (T/C endpoint: median survival time, dose: 800.0 mg/kg/injection, schedule: Q01DX009 (ip), vehicle: Klucel (hydroxypropylcellulose) (HPC)) is reported as 0 of 6.
With Cc1ccc(Cl)c2ccccc12 the survivor count [2] was 3 of 6 and the survivor count [4] was 2 of 6.
In the case of CC(Cl)(C(Cl)Cl)C(F)(F)F (stereo not drawn), the survivor count (T/C endpoint: mean survival time, dose: 200.0 mg/kg/injection, schedule: Q01DX001 (ip), vehicle: saline) is reported as 0 of 6 and the survivor count [1] is reported as 0 of 6.
Nc1cccc(CCCCc2ccc(Cl)c(S(=O)(=O)F)c2)c1 was tested, and the survivor count [4] was 3 of 6.
COC(=O)c1ccc(=O)c2nc3/c(=C/O)c(O)cc(=O)c3[nH]c12 was tested, and the survivor count (T/C endpoint: mean survival time, dose: 20.0 mg/kg/injection, schedule: Q04DX003 (ip), vehicle: saline with Tween-80) was 3 of 6.
For COc1ccc(-c2c(C(=O)NCCc3ccccc3)[nH]c(-c3ccccc3)c2-c2ccccc2)cc1, the survivor count (T/C endpoint: mean survival time, dose: 300.0 mg/kg/injection, schedule: Q01DX001 (ip), vehicle: saline) was 3 of 6.
